The experiment in a line: qHTS Assay for Lipid Storage Modulators in Drosophila S3 Cells.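 On cell number change: cells counted by Cell Tracker Red CMTPX staining in the red channel.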 The settings on record: BODIPY lipid droplet fluorescence, 18-24 h; for cell number change: measured here: cell count max response, cells fed with added oleic acid. In short, it runs like this: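 Drosophila S3 cells got compounds at several concentrations plus oleic acid (400 uM solution). Laser-scanning cytometry with 488 nm excitation read lipid droplets at 500-530 nm and cells at 575-640 nm. Percent activity was relative to 20 uM Triacsin C.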

Setting [1] is: measured here: lipid fluorescence (Fed channel) AC50, cells fed with added oleic acid.
[2] abbreviates: measured here: cell number channel AC50, cells fed with added oleic acid.

This is one part of the list. Shown are side measurements of this screen, not its main read-out; they come without a call. The list favours compounds with an active or inconclusive main result. Potencies come from curve fits of mixed quality, noted in brackets.

On to `O=C(NCCO)C(c1ccccc1)c1ccccc1`, for which the cell number change was -7.41%. In addition, the AC50 under setting [1] is 0.116 µM [falling, full curve, poor fit].

With `CC(=O)c1c(C)cc(C)c(CSc2ccccn2)c1C`, the cell number change turned out to be 1.38%.

As for `O=C(COc1ccc(Cl)cc1Cl)NCCSc1ccc(Cl)cc1`, the cell number change is -15.8%. In addition, under setting [1], the AC50 is 18.4 µM [rising, partial curve].

On to `O=C(Nc1nccs1)c1ccc(COc2c(F)c(F)cc(F)c2F)o1`, for which the cell number change was -32.8%. Further, the AC50 under setting [2] is 32.6 µM [falling, single point]. Besides, the AC50 under setting [1] was 1.84 µM [rising, single point].

For `O=C(Nc1ccc2c(c1)OCCO2)c1ccc(Cl)c(S(=O)(=O)N2CCCCC2)c1`, the cell number change was -3.49%. In addition, under setting [1], the AC50 was 29.1 µM [rising, single point].

Consider `O=C(NCC1CCCO1)c1cccc(S(=O)(=O)NCc2ccccc2)c1` (centres undefined), for which the cell number change is -40.6%. Besides, the AC50 under setting [2] was 29.1 µM [falling, single point]. The AC50 under setting [1] was 29.1 µM [falling, single point].

As to `Cc1ccc(Cl)cc1NC(=O)Cn1c(C)csc1=O`, the cell number change was -0.518%. Further, the AC50 under setting [1] was 9.2 µM [rising, partial curve].

For `CCOc1ccc(CN(C)CC(=O)Nc2cccc(S(=O)(=O)N(C)c3ccccc3)c2)cc1`, the cell number change came to 20.6%. Under setting [2], the AC50 was 0.517 µM [falling, single point].

Take `Nc1cccc(CCc2nc3cc4ccccc4cc3[nH]2)c1`: the cell number change came out at 1.42%. Moreover, the AC50 under setting [1] is 0.0651 µM [rising, full curve, poor fit].

Regarding `CN(C)S(=O)(=O)Oc1ccsc1C(=O)Nc1ccc(Cl)c(Cl)c1`, the cell number change was -33.3%. Besides, the AC50 under setting [2] is 13 µM [falling, partial curve, poor fit]. The AC50 under setting [1] was 16.4 µM [falling, partial curve].

In the case of `Cc1cc(C(=O)NCCCN2CCCC2=O)no1`, the cell number change was -12.8%. The AC50 under setting [2] is 0.82 µM [falling, partial curve]. Besides, under setting [1], the AC50 was 13 µM [falling, partial curve].

As for `CCOC(=O)c1ccc(Nc2cc(C)nc3nc(C)nn23)cc1`, the cell number change is -3.12%. Also, the concentration at half-maximal activity (AC50) under setting [1] was 5.8 µM [rising, partial curve].

On to `Cc1cccc(C)c1NS(=O)(=O)c1ccc(-c2cnc(C3CC3)o2)cc1`, for which the concentration at half-maximal activity (AC50) under setting [1] is 29.1 µM [falling, single point].

For `O=C(COc1ccc(S(=O)(=O)N2CCOCC2)cc1)Nc1cccc([N+](=O)[O-])c1`, the cell number change was -17.1%. Moreover, the AC50 under setting [1] is 35.5 µM [falling, single point].

`COc1ccc(CCNC2=NCCS2)cc1`: the cell number change was found to be 2.5%. Moreover, under setting [1], the AC50 was 0.13 µM [rising, full curve, poor fit].

As to `CN(Cc1ccccc1)c1nc2c(c(=O)[nH]c(=O)n2C)n1CCCc1ccccc1`, the cell number change is -4.15%. Under setting [2], the AC50 was 2.59 µM [rising, partial curve]. The AC50 under setting [1] is 3.26 µM [rising, single point].

As for `COC(=O)c1ccc2c(=O)n(Cc3ccco3)c(SCC(=O)Nc3ccc(C)c(Cl)c3)nc2c1`, the AC50 under setting [1] was 0.58 µM [rising, single point].

With `COC(=O)C1=C(C)N(Cc2ccco2)C(=O)/C1=C\c1ccc(N(C)C)cc1`, the cell number change was found to be 2.69%. Further, the AC50 under setting [1] was 14.6 µM [rising, partial curve].

Turning to `CCOC(=O)c1ccc(NC(=O)CC2C(=O)N(c3ccc(F)cc3)C(=O)N2CCC(C)C)cc1` (centres undefined), the AC50 is, setting by setting: under setting [2], 1.84 µM [rising, partial curve]; under setting [1], 0.731 µM [rising, single point].

Take `COc1ccc(NC(=O)CCSCCc2ccccn2)cc1OC`: the cell number change stood at 15.7%.

Take `CC(Sc1nc(N)cc(N)n1)C(=O)Nc1ccc(N2CCOCC2)cc1` (centres undefined): the AC50 under setting [1] was 0.366 µM [falling, partial curve, poor fit].

For the compound `COc1cc2c(cc1OC)CN(CC(=O)Nc1ccc(C)cc1)CC2`, the cell number change is -12%.

For the compound `COc1ccc(-c2nnc(SCC(=O)NCc3cccs3)n2C(C)C)cc1`, the cell number change was -35.2%.

For `O=C(CN1CCN(C/C=C/c2ccccc2)CC1)NCc1ccccc1`, under setting [1], the AC50 was 1.16 µM [rising, partial curve, poor fit].

With `COc1ccc(CC(=O)OC(C)CN2CCCC2)cc1` (centres undefined), the cell number change was -7.6%. Further, under setting [1], the AC50 was 2.06 µM [falling, partial curve, poor fit].

On to `CN(c1cccnc1)c1ncnc2[nH]ncc12`, for which the cell number change worked out at 25.1%. Besides, under setting [2], the AC50 is 2.59 µM [falling, single point].

For `COc1ccc(-c2nn(-c3ccccc3)cc2/C=C2/SC(=S)N(CCC(=O)O)C2=O)cc1`, the cell number change is 53.2%.

For the compound `Cc1cccc(C)c1Nc1c(-c2ccccn2)nc2ccccn12`, the cell number change is -19.5%.

In the case of `Cn1c2ccsc2c2ncn(Cc3ccccc3F)c(=O)c21`, the cell number change came out at 36.6%. In addition, the AC50 under setting [2] is 16.4 µM [rising, single point]. For the same compound, under setting [1], the concentration at half-maximal activity (AC50) was 29.1 µM [rising, single point].

As for `CN(Cc1nccn1C)C(=O)CC1C(=O)NCCN1CC(c1ccccc1)c1ccccc1` (centres undefined), the cell number change was -21.3%. Under setting [1], the AC50 was 29.1 µM [falling, single point].

Consider `CC(NC(=O)c1cc(=O)[nH]c2ccccc12)c1ccccc1` (centres undefined), for which the cell number change is 2.82%. For the same compound, the AC50 under setting [1] was 1.16 µM [falling, partial curve].

As to `CCC(NC(=O)CCc1c(C)c2cc3c4c(oc3cc2oc1=O)CCCC4)C(=O)O` (centres undefined), the cell number change is 19.7%.

As for `COc1ccc(NC(=O)N2CCC(n3cnc4ccccc43)CC2)cc1`, the cell number change is -22.2%. Besides, the AC50 under setting [1] was 20.6 µM [falling, single point].

Turning to `Cn1nnnc1SCc1csc(Nc2ccccc2)n1`, the cell number change stood at 4.07%. Further, the AC50 under setting [1] was 0.731 µM [rising, full curve, poor fit].

In the case of `CC(=O)C(Sc1ccc2nnc(-c3ccc(F)cc3)n2n1)C(C)=O`, the cell number change amounted to 36.9%. Also, under setting [2], the AC50 is 8.2 µM [rising, single point].

Regarding `O=C(OCCOCCN=C1NS(=O)(=O)c2ccccc21)C1CC(=O)N(c2ccccc2)C1` (centres undefined), the AC50 under setting [1] is 20.6 µM [falling, single point].

For `Cc1nn(CC(=O)Nc2ccc(Br)cc2F)c(=O)c2cccn12`, the cell number change came out at 14.5%. Further, the AC50 under setting [1] was 0.58 µM [rising, single point].

As to `CCC(CC)C(=O)N=C1SC2CS(=O)(=O)CC2N1CCc1ccc(OC)c(OC)c1` (centres undefined), the cell number change was 26.8%. Under setting [1], the AC50 is 20.6 µM [rising, partial curve].

Turning to `COc1ccc(NC(=O)CN2CCC3(O)CCCCC3C2c2cc(OC)ccc2OC)cc1` (centres undefined), the cell number change is -6.63%. In addition, under setting [1], the AC50 is 29.1 µM [rising, single point].

Regarding `COc1cc(C(Nc2ccccn2)c2c(NC(=O)c3ccco3)sc(C)c2C)cc(OC)c1OC` (centres undefined), the cell number change was -1.57%. Also, the AC50 under setting [1] was 13 µM [rising, single point].
